Assay results published in patent US20050019826A1 (priority 2000, published 2005).
These are yes or no findings as the source states them, for the method shown. Some entries that bind do so weakly or less than the wild type. Blank lines part the entries; values can stand above or below the binder they belong to.

Amino acid sequences for entries named in this document (tags omitted). Residues count along the entry.
UniProt P35968, residues 20-1356: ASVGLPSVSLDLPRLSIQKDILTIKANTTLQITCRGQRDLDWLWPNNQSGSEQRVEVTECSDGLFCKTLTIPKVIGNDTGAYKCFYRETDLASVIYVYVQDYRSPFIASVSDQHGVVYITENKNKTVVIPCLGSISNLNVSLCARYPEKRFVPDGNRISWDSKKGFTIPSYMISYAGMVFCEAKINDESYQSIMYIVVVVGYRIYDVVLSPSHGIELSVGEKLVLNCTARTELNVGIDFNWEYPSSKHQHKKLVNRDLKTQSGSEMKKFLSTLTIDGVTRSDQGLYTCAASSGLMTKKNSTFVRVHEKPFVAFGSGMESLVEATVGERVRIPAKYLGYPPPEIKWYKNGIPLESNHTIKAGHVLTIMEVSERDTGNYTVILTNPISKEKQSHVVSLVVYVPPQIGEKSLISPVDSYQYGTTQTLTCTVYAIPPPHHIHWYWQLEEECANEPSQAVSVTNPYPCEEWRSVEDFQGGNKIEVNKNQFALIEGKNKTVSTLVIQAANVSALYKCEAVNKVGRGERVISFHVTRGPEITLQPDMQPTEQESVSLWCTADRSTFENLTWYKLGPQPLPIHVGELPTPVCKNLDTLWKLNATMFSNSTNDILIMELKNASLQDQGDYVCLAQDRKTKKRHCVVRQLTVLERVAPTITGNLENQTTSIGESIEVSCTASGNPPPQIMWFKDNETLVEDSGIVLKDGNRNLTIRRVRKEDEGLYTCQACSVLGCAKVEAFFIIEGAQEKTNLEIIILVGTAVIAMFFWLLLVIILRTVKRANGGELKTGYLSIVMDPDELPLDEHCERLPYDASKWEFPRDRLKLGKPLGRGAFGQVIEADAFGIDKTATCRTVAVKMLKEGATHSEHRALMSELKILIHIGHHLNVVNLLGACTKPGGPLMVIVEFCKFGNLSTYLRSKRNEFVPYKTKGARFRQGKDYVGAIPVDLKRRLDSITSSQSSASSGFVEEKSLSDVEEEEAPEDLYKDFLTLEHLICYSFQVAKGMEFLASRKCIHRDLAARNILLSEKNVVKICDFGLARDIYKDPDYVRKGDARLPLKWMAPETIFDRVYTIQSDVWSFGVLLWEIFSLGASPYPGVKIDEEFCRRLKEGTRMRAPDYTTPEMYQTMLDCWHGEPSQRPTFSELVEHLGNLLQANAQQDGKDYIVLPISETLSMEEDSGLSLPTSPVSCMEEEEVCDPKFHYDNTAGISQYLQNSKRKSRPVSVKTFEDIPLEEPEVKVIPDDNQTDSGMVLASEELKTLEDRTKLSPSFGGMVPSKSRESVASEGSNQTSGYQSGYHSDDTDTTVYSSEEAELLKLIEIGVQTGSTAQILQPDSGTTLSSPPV

Columns and labels:
[1] = target: recombinant KDR expressed at the membrane surface of CHO-KDR cells (UniProt P35968); experiment: competition with 125I-VEGF on CHO-KDR cells, peptide at 2.1x10^-4 M
[2] = target: recombinant KDR expressed at the membrane surface of CHO-KDR cells (UniProt P35968); experiment: 125I-VEGF165 displacement and Scatchard analysis on CHO-KDR cells with 50 µg/ml V1 (FIG. 15)
[3] = target: recombinant KDR expressed at the membrane surface of CHO-KDR cells (UniProt P35968); experiment: competition with radioactive-labelled VEGF for binding to CHO-KDR cells (FIG. 5)

- binding [1]: binds
- binding [2]: binds
- binding [3]: binds
B1: synthetic peptide V1 (ATWLPPR) (peptide)
peptide: ATWLPPR

- binding [1]: binds
B2: synthetic peptide K4 (SLPAHAR) (peptide)
peptide: SLPAHAR
